# From the supplement of paper PMC8728848
# The list shows a part of the results.
# Legend:
# Test in all cases: glycan array binding signal (z-score within array); higher = stronger binding
# Details in all cases: glycan notation: IUPAC condensed, linker removed
# [1] = target: Neu5Ac(a2-3)Gal(b1-4)[Fuc(a1-3)]GlcNAc(b1-3)Gal(b1-4)[Fuc(a1-3)]GlcNAc(b1-3)Gal(b1-4)[Fuc(a1-3)]GlcNAc
# Summary of the method: (§1)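 Columns mapping to the same glycan were averaged after glycan names were converted to IUPAC-condensed notation. The data come from 3228 arrays in the Consortium for Functional Glycomics database, limited to those with an available protein sequence. Binding is reported as a within-array Z-score averaged across arrays of one protein sequence and across linkers.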
# [2] = target: Neu5Ac(a2-3)Gal(b1-4)[Fuc(a1-3)]GlcNAc(b1-3)GalNAc
# Summary of the method: as §1
# [3] = target: Neu5Ac(a2-3)Gal(b1-4)[Fuc(a1-3)]GlcNAc(b1-6)[Gal(b1-3)]GalNAc
# Summary of the method: as §1
# [4] = target: Neu5Ac(a2-3)Gal(b1-4)[Fuc(a1-3)]GlcNAc(b1-6)[Neu5Ac(a2-3)Gal(b1-3)]GalNAc
# Summary of the method: as §1
# [5] = target: Neu5Ac(a2-3)Gal(b1-4)[Fuc(a1-3)]GlcNAc6S
# Summary of the method: as §1
# [6] = target: Neu5Ac(a2-3)Gal6S(b1-4)GlcNAc
# Summary of the method: as §1
# [7] = target: Neu5Ac(a2-3)Gal6S(b1-4)[Fuc(a1-3)]GlcNAc
# Summary of the method: as §1
# [8] = target: Neu5Ac(a2-3)GalNAc
# Summary of the method: as §1
# [9] = target: Neu5Ac(a2-3)GalNAc(b1-4)GlcNAc
# Summary of the method: as §1
# [10] = target: Neu5Ac(a2-3)[GalNAc(b1-4)]Gal(b1-4)Glc
# Summary of the method: as §1
# [11] = target: Neu5Ac(a2-3)[GalNAc(b1-4)]Gal(b1-4)GlcNAc
# Summary of the method: as §1
# [12] = target: Neu5Ac(a2-3)[Neu5Ac(a2-6)]GalNAc
# Summary of the method: as §1
# [13] = target: Neu5Ac(a2-6)Gal
# Summary of the method: as §1
# [14] = target: Neu5Ac(a2-6)Gal(b1-4)Glc
# Summary of the method: as §1
# [15] = target: Neu5Ac(a2-6)Gal(b1-4)GlcNAc
# Summary of the method: as §1
# [16] = target: Neu5Ac(a2-6)Gal(b1-4)GlcNAc(b1-2)Man(a1-3)Man(b1-4)GlcNAc(b1-4)GlcNAc
# Summary of the method: as §1
# [17] = target: Neu5Ac(a2-6)Gal(b1-4)GlcNAc(b1-2)Man(a1-3)[Gal(b1-4)GlcNAc(b1-2)Man(a1-6)]Man(b1-4)GlcNAc(b1-4)GlcNAc
# Summary of the method: as §1
# [18] = target: Neu5Ac(a2-6)Gal(b1-4)GlcNAc(b1-2)Man(a1-3)[GlcNAc(b1-2)Man(a1-6)]Man(b1-4)GlcNAc(b1-4)GlcNAc
# Summary of the method: as §1
# [19] = target: Neu5Ac(a2-6)Gal(b1-4)GlcNAc(b1-2)Man(a1-3)[GlcNAc(b1-2)Man(b1-4)GlcNAc(b1-2)Man(a1-6)]Man(b1-4)GlcNAc(b1-4)GlcNAc
# Summary of the method: as §1
# [20] = target: Neu5Ac(a2-6)Gal(b1-4)GlcNAc(b1-2)Man(a1-3)[Man(a1-6)]Man(b1-4)GlcNAc(b1-4)GlcNAc
# Summary of the method: as §1
# [21] = target: Neu5Ac(a2-6)Gal(b1-4)GlcNAc(b1-2)Man(a1-3)[Neu5Ac(a2-6)Gal(b1-4)GlcNAc(b1-2)Man(a1-6)]Man(b1-4)GlcNAc(b1-4)GlcNAc
# Summary of the method: as §1
# [22] = target: Neu5Ac(a2-6)Gal(b1-4)GlcNAc(b1-2)Man(a1-6)Man(b1-4)GlcNAc(b1-4)GlcNAc
# Summary of the method: as §1
# [23] = target: Neu5Ac(a2-6)Gal(b1-4)GlcNAc(b1-2)Man(a1-6)[Gal(b1-4)GlcNAc(b1-2)Man(a1-3)]Man(b1-4)GlcNAc(b1-4)GlcNAc
# Summary of the method: as §1
# [24] = target: Neu5Ac(a2-6)Gal(b1-4)GlcNAc(b1-2)Man(a1-6)[GlcNAc(b1-2)Man(a1-3)]Man(b1-4)GlcNAc(b1-4)GlcNAc
# Summary of the method: as §1
# [25] = target: Neu5Ac(a2-6)Gal(b1-4)GlcNAc(b1-2)Man(a1-6)[Man(a1-3)]Man(b1-4)GlcNAc(b1-4)GlcNAc
# Summary of the method: as §1
# [26] = target: Neu5Ac(a2-6)Gal(b1-4)GlcNAc(b1-3)Gal(b1-3)GlcNAc
# Summary of the method: as §1
# [27] = target: Neu5Ac(a2-6)Gal(b1-4)GlcNAc(b1-3)Gal(b1-4)GlcNAc
# Summary of the method: as §1
# [28] = target: Neu5Ac(a2-6)Gal(b1-4)GlcNAc(b1-3)Gal(b1-4)GlcNAc(b1-3)Gal(b1-4)GlcNAc
# Summary of the method: as §1
# [29] = target: Neu5Ac(a2-6)Gal(b1-4)GlcNAc(b1-3)Gal(b1-4)[Fuc(a1-3)]GlcNAc(b1-3)Gal(b1-4)[Fuc(a1-3)]GlcNAc
# Summary of the method: as §1
# [30] = target: Neu5Ac(a2-6)Gal(b1-4)GlcNAc(b1-3)GalNAc
# Summary of the method: as §1
# [31] = target: Neu5Ac(a2-6)Gal(b1-4)GlcNAc6S
# Summary of the method: as §1
# [32] = target: Neu5Ac(a2-6)GalNAc
# Summary of the method: as §1
# [33] = target: Neu5Ac(a2-6)GalNAc(b1-4)GlcNAc
# Summary of the method: as §1
# [34] = target: Neu5Ac(a2-6)GlcNAc(b1-4)GlcNAc
# Summary of the method: as §1
# [35] = target: Neu5Ac(a2-6)GlcNAc(b1-4)GlcNAc(b1-4)GlcNAc
# Summary of the method: as §1
# [36] = target: Neu5Ac(a2-8)Neu5Ac
# Summary of the method: as §1
# [37] = target: Neu5Ac(a2-8)Neu5Ac(a2-3)Gal(b1-4)Glc
# Summary of the method: as §1
# [38] = target: Neu5Ac(a2-8)Neu5Ac(a2-3)[GalNAc(b1-4)]Gal(b1-4)Glc
# Summary of the method: as §1
# [39] = target: Neu5Ac(a2-8)Neu5Ac(a2-8)Neu5Ac
# Summary of the method: as §1
# [40] = target: Neu5Ac(a2-8)Neu5Ac(a2-8)Neu5Ac(a2-3)Gal(b1-4)Glc
# Summary of the method: as §1
# [41] = target: Neu5Ac(a2-8)Neu5Ac(a2-8)Neu5Ac(a2-3)[GalNAc(b1-4)]Gal(b1-4)Glc
# Summary of the method: as §1
# [42] = target: Neu5Ac(a2-8)Neu5Ac(a2-8)Neu5Ac(a2-8)Neu5Ac(a2-3)[GalNAc(b1-4)]Gal(b1-4)Glc
# Summary of the method: as §1
# [43] = target: Neu5Ac(b2-6)Gal(b1-4)GlcNAc
# Summary of the method: as §1
# [44] = target: Neu5Ac(b2-6)GalNAc
# Summary of the method: as §1
# [45] = target: Neu5Ac9Ac(a2-3)Gal(b1-3)GlcNAc
# Summary of the method: as §1
# [46] = target: Neu5Ac9Ac(a2-3)Gal(b1-4)GlcNAc
# Summary of the method: as §1
# [47] = target: Neu5Ac9Ac(a2-6)Gal(b1-4)GlcNAc
# Summary of the method: as §1
# [48] = target: Neu5Gc(a2-3)Gal(b1-3)GlcNAc
# Summary of the method: as §1
# [49] = target: Neu5Gc(a2-3)Gal(b1-3)[Fuc(a1-4)]GlcNAc
# Summary of the method: as §1
# [50] = target: Neu5Gc(a2-3)Gal(b1-4)Glc
# Summary of the method: as §1
# [51] = target: Neu5Gc(a2-3)Gal(b1-4)GlcNAc
# Summary of the method: as §1
# [52] = target: Neu5Gc(a2-3)Gal(b1-4)[Fuc(a1-3)]GlcNAc
# Summary of the method: as §1
# [53] = target: Neu5Gc(a2-6)Gal(b1-4)GlcNAc
# Summary of the method: as §1
# [54] = target: Neu5Gc(a2-6)GalNAc
# Summary of the method: as §1
# [55] = target: Neu5Gc(b2-6)Gal(b1-4)GlcNAc
# Summary of the method: as §1
binder,measurement,setting,value
PP2A1 (Arabidopsis thaliana) (protein) MFRNQDSKYLIPVQKEAPPVTTLPMKASTVKSPHNCEAILRDADPPISLSSVNLSEQLRSGVFLKPKKQIKYWVDERNSNCFMLFAKNLSITWSDDVNYWTWFTEKESPNENVEAVGLKNVCWLDITGKFDTRNLTPGIVYEVVFKVKLEDPAYGWDTPVNLKLVLPNGKEKPQEKKVSLRELPRYKWVDVRVGEFVPEKSAAGEITFSMYEHAAGVWKKGLSLKGVAIRPKQHHHHHH,glycan array binding signal (z-score),[1],-0.402
same,glycan array binding signal (z-score),[2],2.27
same,glycan array binding signal (z-score),[3],-0.268
same,glycan array binding signal (z-score),[4],-0.091
same,glycan array binding signal (z-score),[5],-0.242
same,glycan array binding signal (z-score),[6],0.07
same,glycan array binding signal (z-score),[7],0.241
same,glycan array binding signal (z-score),[8],-0.563
same,glycan array binding signal (z-score),[9],-0.377
same,glycan array binding signal (z-score),[10],-0.143
same,glycan array binding signal (z-score),[11],0.319
same,glycan array binding signal (z-score),[12],-0.069
same,glycan array binding signal (z-score),[13],-0.22
same,glycan array binding signal (z-score),[14],-0.255
same,glycan array binding signal (z-score),[15],-0.348
same,glycan array binding signal (z-score),[16],1.76
same,glycan array binding signal (z-score),[17],0.098
same,glycan array binding signal (z-score),[18],1.09
same,glycan array binding signal (z-score),[19],0.772
same,glycan array binding signal (z-score),[20],2.57
same,glycan array binding signal (z-score),[21],1.13
same,glycan array binding signal (z-score),[22],0.155
same,glycan array binding signal (z-score),[23],0.37
same,glycan array binding signal (z-score),[24],0.372
same,glycan array binding signal (z-score),[25],0.225
same,glycan array binding signal (z-score),[26],-0.355
same,glycan array binding signal (z-score),[27],-0.311
same,glycan array binding signal (z-score),[28],-0.134
same,glycan array binding signal (z-score),[29],-0.301
same,glycan array binding signal (z-score),[30],0.09
same,glycan array binding signal (z-score),[31],0.408
same,glycan array binding signal (z-score),[32],-0.519
same,glycan array binding signal (z-score),[33],-0.478
same,glycan array binding signal (z-score),[34],0.23
same,glycan array binding signal (z-score),[35],-0.689
same,glycan array binding signal (z-score),[36],-0.408
same,glycan array binding signal (z-score),[37],-0.364
same,glycan array binding signal (z-score),[38],0.265
same,glycan array binding signal (z-score),[39],-0.255
same,glycan array binding signal (z-score),[40],0.006
same,glycan array binding signal (z-score),[41],0.401
same,glycan array binding signal (z-score),[42],-0.313
same,glycan array binding signal (z-score),[43],0.16
same,glycan array binding signal (z-score),[44],-0.506
same,glycan array binding signal (z-score),[45],-0.408
same,glycan array binding signal (z-score),[46],0.133
same,glycan array binding signal (z-score),[47],-0.487
same,glycan array binding signal (z-score),[48],-0.251
same,glycan array binding signal (z-score),[49],-0.18
same,glycan array binding signal (z-score),[50],0.177
same,glycan array binding signal (z-score),[51],-0.079
same,glycan array binding signal (z-score),[52],-0.274
same,glycan array binding signal (z-score),[53],-0.392
same,glycan array binding signal (z-score),[54],-0.153
same,glycan array binding signal (z-score),[55],-0.545

# Some of the entries so far, with bars between the fields:
binder | measurement | setting | value
PP2A1 (Arabidopsis thaliana) (protein) MFRNQDSKYLIPVQKEAPPVTTLPMKASTVKSPHNCEAILRDADPPISLSSVNLSEQLRSGVFLKPKKQIKYWVDERNSNCFMLFAKNLSITWSDDVNYWTWFTEKESPNENVEAVGLKNVCWLDITGKFDTRNLTPGIVYEVVFKVKLEDPAYGWDTPVNLKLVLPNGKEKPQEKKVSLRELPRYKWVDVRVGEFVPEKSAAGEITFSMYEHAAGVWKKGLSLKGVAIRPKQHHHHHH | glycan array binding signal (z-score) | [33] | -0.478
same | glycan array binding signal (z-score) | [36] | -0.408
same | glycan array binding signal (z-score) | [41] | 0.401
